{"source": "PubChem BioAssay AID1159584 (Peter MacCallum Cancer Centre, 2016)", "aim": "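Genes that CDH1-null MCF10A cells selectively depend on to survive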 (primary screen)", "cells": "human MCF10A breast epithelial cells, parental and CDH1-null", "reagents": "siRNA against human genes", "measurement": "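ATP luminescence (CellTiter-Glo) viability per line relative to mean mock wells over all plates, and the ratio of CDH1-null to parental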", "reading the numbers": "CDH1-null / parental viability ratio: higher = CDH1-null cells survive relatively better than parental", "note": "In all, the deposit lists about 18,000 reagents; below is a random part of them. Not all columns of the deposit are shown. Not stated in the record: the amount of reagent, the time to read-out."}
{"target":"FOSL2 (FOS like 2, AP-1 transcription factor subunit)","PubChem SID":"SID134310275","CDH1-null / parental viability ratio":1.04}
{"target":"SORCS1 (sortilin related VPS10 domain containing receptor 1)","PubChem SID":"SID152152522","CDH1-null / parental viability ratio":0.82}
{"target":"CCDC17 (coiled-coil domain containing 17)","PubChem SID":"SID135623244","CDH1-null / parental viability ratio":1.12}
{"target":"VCX2 (variable charge X-linked 2)","PubChem SID":"SID135621227","CDH1-null / parental viability ratio":1.03}
{"target":"RLBP1 (retinaldehyde binding protein 1)","PubChem SID":"SID152153904","CDH1-null / parental viability ratio":0.91}
{"target":"RD3 (RD3 regulator of GUCY2D)","PubChem SID":"SID134323247","CDH1-null / parental viability ratio":1.06}
{"target":"TFIP11 (tuftelin interacting protein 11)","PubChem SID":"SID152156716","CDH1-null / parental viability ratio":0.97}
{"target":"TMEM97 (transmembrane protein 97)","PubChem SID":"SID152152087","CDH1-null / parental viability ratio":0.85}
{"target":"NAXD (NAD(P)HX dehydratase)","PubChem SID":"SID152153147","CDH1-null / parental viability ratio":0.74}
{"target":"PSEN1 (presenilin 1)","PubChem SID":"SID134310708","CDH1-null / parental viability ratio":1.07}
{"target":"YIPF4 (Yip1 domain family member 4)","PubChem SID":"SID134318937","CDH1-null / parental viability ratio":0.93}
{"target":"CT47A4 (cancer/testis antigen family 47 member A4)","PubChem SID":"SID135625660","CDH1-null / parental viability ratio":1.07}
{"target":"HENMT1 (HEN methyltransferase 1)","PubChem SID":"SID152149838","CDH1-null / parental viability ratio":1.29}
{"target":"INSL4 (insulin like 4)","PubChem SID":"SID135622180","CDH1-null / parental viability ratio":1.27}
{"target":"KLHDC9 (kelch domain containing 9)","PubChem SID":"SID135623070","CDH1-null / parental viability ratio":0.76}
{"target":"SNRNP40 (small nuclear ribonucleoprotein U5 subunit 40)","PubChem SID":"SID135623856","CDH1-null / parental viability ratio":1.1}
{"target":"MDH2 (malate dehydrogenase 2)","PubChem SID":"SID134313312","CDH1-null / parental viability ratio":1.07}
{"target":"P2RX5 (purinergic receptor P2X 5)","PubChem SID":"SID152146957","CDH1-null / parental viability ratio":1.07}
{"target":"EIF6 (eukaryotic translation initiation factor 6)","PubChem SID":"SID134314738","CDH1-null / parental viability ratio":0.9}
{"target":"C1orf220 (chromosome 1 putative open reading frame 220)","PubChem SID":"SID134329620","CDH1-null / parental viability ratio":1}
{"target":"ULBP1 (UL16 binding protein 1)","PubChem SID":"SID152154482","CDH1-null / parental viability ratio":1.14}
{"target":"SLC16A5","PubChem SID":"SID135621365","CDH1-null / parental viability ratio":1.28}
{"target":"FAXC","PubChem SID":"SID134318996","CDH1-null / parental viability ratio":1.17}
{"target":"ZNF774 (zinc finger protein 774)","PubChem SID":"SID152155613","CDH1-null / parental viability ratio":0.84}
{"target":"NXT2 (nuclear transport factor 2 like export factor 2)","PubChem SID":"SID134320903","CDH1-null / parental viability ratio":0.92}
{"target":"TSPAN6 (tetraspanin 6)","PubChem SID":"SID152153139","CDH1-null / parental viability ratio":1.04}
{"target":"CREB3L1 (cAMP responsive element binding protein 3 like 1)","PubChem SID":"SID152148691","CDH1-null / parental viability ratio":0.82}
{"target":"ZC3HC1 (zinc finger C3HC-type containing 1)","PubChem SID":"SID152154939","CDH1-null / parental viability ratio":1}
{"target":"DAW1 (dynein assembly factor with WD repeats 1)","PubChem SID":"SID135623408","CDH1-null / parental viability ratio":0.96}
{"target":"CCDC157 (coiled-coil domain containing 157)","PubChem SID":"SID135625402","CDH1-null / parental viability ratio":1.29}
{"target":"PMPCB (peptidase, mitochondrial processing subunit beta)","PubChem SID":"SID135620879","CDH1-null / parental viability ratio":1.25}
{"target":"BANF2 (BANF family member 2)","PubChem SID":"SID152149706","CDH1-null / parental viability ratio":1.1}
{"target":"NDUFA8 (NADH:ubiquinone oxidoreductase subunit A8)","PubChem SID":"SID134316763","CDH1-null / parental viability ratio":1.34}
{"target":"DUSP26 (dual specificity phosphatase 26)","PubChem SID":"SID134312959","CDH1-null / parental viability ratio":1.19}
{"target":"TMEM245 (transmembrane protein 245)","PubChem SID":"SID152149191","CDH1-null / parental viability ratio":0.83}

Copied from the list:
Entry of HENMT1 (HEN methyltransferase 1) [SID152149838] under “CDH1-null / parental viability ratio”: 1.29
RD3 (RD3 regulator of GUCY2D) [SID134323247], CDH1-null / parental viability ratio = 1.06
Under “CDH1-null / parental viability ratio”, FAXC [SID134318996] shows 1.17
Result of SORCS1 (sortilin related VPS10 domain containing receptor 1) [SID152152522] in “CDH1-null / parental viability ratio”: 0.82
Under “CDH1-null / parental viability ratio”, P2RX5 (purinergic receptor P2X 5) [SID152146957] has 1.07
